Results are given in words; binding and its absence hold for the method and conditions named. In cells and extracts the contact can be indirect. Some entries that bind do so weakly or less than the wild type.
Target: androgen receptor (human (endogenous in T-47D and MFM-223)) (UniProt P10275)
Assay: co-IP; IP of endogenous AR with rabbit polyclonal AR antibody from T-47D and MFM-223 lysates; non-denaturing lysis buffer (20 mM Tris HCl pH 8, 137 nM NaCl, 10% glycerol, 1% NP-40, 2 mM EDTA), overnight at 4°C, Protein A-Sepharose beads; immunoblot for C1orf64 and AR; control non-specific rabbit …; three replicates

The chains behind the UniProt entries cited, without tags or fusion partners.
UniProt P10275: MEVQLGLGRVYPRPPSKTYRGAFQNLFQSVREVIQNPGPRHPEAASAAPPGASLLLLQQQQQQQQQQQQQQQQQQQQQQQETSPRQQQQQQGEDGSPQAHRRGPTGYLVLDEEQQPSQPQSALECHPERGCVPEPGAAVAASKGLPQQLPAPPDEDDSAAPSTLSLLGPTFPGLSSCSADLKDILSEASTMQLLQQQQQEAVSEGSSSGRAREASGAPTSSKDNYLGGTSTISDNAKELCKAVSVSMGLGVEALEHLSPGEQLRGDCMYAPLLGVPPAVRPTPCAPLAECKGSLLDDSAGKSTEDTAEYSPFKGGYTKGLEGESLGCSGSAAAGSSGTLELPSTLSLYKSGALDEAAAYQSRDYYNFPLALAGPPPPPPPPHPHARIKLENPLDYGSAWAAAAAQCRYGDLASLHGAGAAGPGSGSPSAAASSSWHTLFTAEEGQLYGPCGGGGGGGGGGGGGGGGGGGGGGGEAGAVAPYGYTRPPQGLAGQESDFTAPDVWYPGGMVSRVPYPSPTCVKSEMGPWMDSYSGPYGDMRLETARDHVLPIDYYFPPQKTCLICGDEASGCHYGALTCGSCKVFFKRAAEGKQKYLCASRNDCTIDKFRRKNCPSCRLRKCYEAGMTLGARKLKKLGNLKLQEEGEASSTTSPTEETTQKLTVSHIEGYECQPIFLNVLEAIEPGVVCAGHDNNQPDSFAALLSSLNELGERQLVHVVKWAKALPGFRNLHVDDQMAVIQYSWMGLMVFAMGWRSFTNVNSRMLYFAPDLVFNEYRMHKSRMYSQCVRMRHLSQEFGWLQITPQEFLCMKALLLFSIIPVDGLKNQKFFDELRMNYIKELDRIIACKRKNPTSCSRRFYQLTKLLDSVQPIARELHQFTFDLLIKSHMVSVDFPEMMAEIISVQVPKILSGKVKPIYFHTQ

- binding: binds
B1: C1orf64 (protein, UniProt Q8NEQ6 1-169)
chain: MAPSEDPRDWRANLKGTIRETGLETSSGGKLAGHQKTVPTAHLTFVIDCTHGKQLSLAATASPPQAPSPNRGLVTPPMKTYIVFCGENWPHLTRVTPMGGGCLAQARATLPLCRGSVASASFPVSPLCPQEVPEAKGKPVKAAPVRSSTWGTVKDSLKALSSCVCGQAD
